The other results are listed elsewhere or left out.

This experiment is described as follows: HT29 colon tumor cell growth inhibition, primary screen, imaging, high content imaging, 72 h, CellTiter-Glo (AID 772).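 For condensed nuclei: condensed means nuclear area below control median minus 1.5 SD.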 Particulars: HCS imaging cell count, at 10 µM, stronger effect = higher value; condensed nuclei: measured here: percent cells with condensed nuclei; growth inhibition: measured here: ATP CellTiter-Glo viability. Background: Cellular ATP, detected with luciferase, serves as a proxy for viable cell number.
Take `Cc1ccc(OCC(=O)OC2CN3CCC2CC3)cc1` (stereo unspecified): the condensed nuclei amounted to 7.96% and the growth inhibition is -16.1%.
On the same counts, the results for `Cc1cccc(OCC(=O)OC2CN3CCC2CC3)c1` (stereo unspecified) are 3.76% and -27.1%.
With `CCN(CC)CC(O)COC(=O)C(O)(c1ccccc1)C1CCCCC1` (stereo unspecified), the condensed nuclei amounted to 12.8% and the growth inhibition stood at 2.25%.

(Values after PubChem BioAssay AID772 (SRMLSC, 2007).)
